# Source: paper PMC5996148
# The other results are listed elsewhere or left out.
# Tests used:
# Assay in all cases: protein microarray (ProtoArray v5.0), streptavidin-Alexa Fluor 647
# Details in all cases: 3'-biotin; 20 mM Tris (pH 7.5), 5 mM MgCl2, 100 mM KCl, 0.1% Tween-20, A/T-rich and random oligonucleotide blockers; temperature not stated; high values mean tight binding
# YIPF4 (human) = system: YIPF4 (human)
# YIPF5 (human) = system: YIPF5 (human)
# YKT6 (human) = system: YKT6 (human)
# YSK4 (human) = system: YSK4 (human)
# ZBED2 (human) = system: ZBED2 (human)
# ZBTB25 (human) = system: ZBTB25 (human)
# ZBTB8OS (human) = system: ZBTB8OS (human)
# ZDHHC19 (human) = system: ZDHHC19 (human)
# ZMYM5 (human) = system: ZMYM5 (human)
# ZMYM6 (human) = system: ZMYM6 (human)
sequence,measurement,setting,value
GGGAGGCTGAGGCAGG [G4-1 biotinylated (PQS2)],binding signal,YIPF4 (human),-0.343 z-score
same,binding signal,YIPF5 (human),-0.264 z-score
same,binding signal,YKT6 (human),-0.348 z-score
same,binding signal,YSK4 (human),-0.334 z-score
same,binding signal,ZBED2 (human),-0.327 z-score
same,binding signal,ZBTB25 (human),-0.346 z-score
same,binding signal,ZBTB8OS (human),-0.362 z-score
same,binding signal,ZDHHC19 (human),-0.303 z-score
same,binding signal,ZMYM5 (human),-0.38 z-score
same,binding signal,ZMYM6 (human),-0.345 z-score

# Exported as tab-separated lines: part of the list above
sequence	measurement	setting	value
GGGAGGCTGAGGCAGG [G4-1 biotinylated (PQS2)]	binding signal	ZBTB25 (human)	-0.346 z-score
same	binding signal	ZBTB8OS (human)	-0.362 z-score
